For at least one compound, name, drawing or mass did not settle the structure.
What was measured:
[1] = system: monoklonaler Antikörper MAK 160 (von Klon 160, ECACC 85 12 1701) gegen Testosteron; assay: Cross-reaction with other steroids, competitive ELISA on plates coated with Testosteron-3-carboxymethyloxim-RSA; format: binding, Maus; details: calculated from C = antigen concentration needed to reach 50 % of the maximum signal, relative to Testosteron
Protocol: (§1) Um die Anwesenheit und Spezifität von Antikörpern gegen Testosteron im Serum immunisierter Mäuse oder in dem Kulturüberstand der Hybridzellen oder in Ascites zu erkennen, wird ein ELISA-Verfahren als Testprinzip verwendet: Mikrotiterplatten werden mit 1 /ug Testosteron-3-carboxymethyloxim-RSA/ml Beschichtungspuffer (0,2 M Natriumcarbonat/-Bicarbonat, pH 9,3-9,5) bei 37° C eine Stunde lang beschichtet. Es wird 10 Minuten mit 0,9 % Natriumchloridlösung und 1 % Albuminlösung nachbehandelt. Anschließend wird mit 0,9 % Natriumchloridlösung gewaschen. Danach wird bei 37° C eine Stunde mit 100 /ul Probe inkubiert und erneut mit 0,9 % Natriumchloridlösung gewaschen. Um eine mögliche Kreuzreaktion mit anderen Steroiden zu prüfen, werden der Probelösung 100 µg - 1 /ug/ml des zu prüfenden Steroids zugesetzt. Eine Erniedrigung des Meßsignals in Gegenwart anderer Steroide bedeutet Kreuzreaktion. Es folgt eine weitere Inkubation (eine Stunde, 37° C) mit 450 mU/ml eines Schaf-Fabanti-- Maus-Fcγ-Peroxidase-Konjugats. Nach einem erneuten Waschschritt mit 0,9 % Natriumchlorid wird die Peroxidaseaktivität in üblicher Weise bestimmt (beispielsweise mit ABTS, 30 Minuten bei Raumtemperatur, abgelesen wird die Extinktionsdifferenz, Δ mE, bei 405 nm).
(§2) Der Test wird, wie in Beispiel 2 beschrieben, durchgeführt. […]

[2] = system: monoklonaler Antikörper MAK 97 (von Klon 97, ECACC 85 12 1702) gegen Testosteron; assay: as above; format: binding, Maus; details: calculated from C = antigen concentration needed to reach 50 % of the maximum signal, relative to Testosteron
Protocol: as §1, §2

C[C@]12CCC(=O)C=C1CC[C@@H]1[C@@H]2CC[C@]2(C)C(=O)CC[C@@H]12 [Androstendion]
Kreuzreaktion in % mit [1]: 3% | Kreuzreaktion in % mit [2]: 3%

From EP0226985A2, “Method and reagent for determining testosterone as well as a monoclonal antibody suitable for this” (BOEHRINGER MANNHEIM GMBH, priority 1985, dated 1987)
